From the supplement of paper PMC7580552
Where a name gives a salt, the structure may show the parent alone. Some of the results follow. Plates or batches differ in their baseline, so values are only roughly comparable.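 Biofilm, quantified by the absorbance of well-retained crystal violet, is assayed using the K-12 laboratory model grown unshaken in 96-well plates. Candidate specific biofilm inhibitors were drugs that sharply lowered staining yet reduced free-floating growth by less than 70%.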

Tested on: Escherichia coli W3110
Assay: biofilm formation (crystal violet staining) relative to untreated control; higher = more biofilm
Settings: 10 µM; 20-24 h; 30 °C; TB

Compound	biofilm formation [%]
O=C1c2ccccc2C(=O)C1c1ccccc1 [Phenindione]	59
Clc1ccc2c(c1)C(N1CCNCC1)=Nc1ccccc1O2 [Amoxapine]	11
O=C(O)CCc1nc(-c2ccccc2)c(-c2ccccc2)o1 [Oxaprozin]	102
CC[C@H]1OC(=O)[C@H](C)[C@@H](O[C@H]2C[C@@](C)(OC)[C@@H](O)[C@H](C)O2)[C@H](C)[C@@H](O[C@@H]2O[C@H](C)C[C@H](N(C)C)[C@H]2O)[C@](C)(O)C[C@@H](C)C(=O)[C@H](C)[C@@H](O)[C@]1(C)O [Erythromycin]	59
Cc1c(Cl)cccc1Nc1ccccc1C(=O)O [Tolfenamic acid]	58
CCCSc1ccc2[nH]c(NC(=O)OC)nc2c1 [Albendazole]	57
CO[C@H]1/C=C/O[C@@]2(C)Oc3c(C)c(O)c4c(O)c(c(/C=N/N5CCN(C)CC5)c(O)c4c3C2=O)NC(=O)/C(C)=C\C=C\[C@H](C)[C@H](O)[C@@H](C)[C@@H](O)[C@@H](C)[C@H](OC(C)=O)[C@@H]1C [Rifampicin]	18
Cc1ccc(N(CC2=NCCN2)c2cccc(O)c2)cc1 [Phentolamine hydrochloride]	87
CCc1ccc(CCOc2ccc(CC3SC(=O)NC3=O)cc2)nc1 (stereo not given) [Pioglitazone]	43
CC(C(=O)O)c1cccc(Oc2ccccc2)c1 (stereo not given) [Fenoprofen calcium salt dihydrate]	58
Oc1ccc(C2CNCCc3c2cc(O)c(O)c3Cl)cc1 (stereo not given) [Fenoldopam]	60
CCCc1ncc(C[n+]2ccccc2C)c(N)n1 [Amprolium hydrochloride]	89
CC(=O)OCC(=O)NCCCOc1cccc(CN2CCCCC2)c1 [Roxatidine Acetate hydrochloride]	90
CCn1cc(C(=O)O)c(=O)c2cc(F)c(N3CCNCC3)nc21 [Enoxacin]	18
CC(C)(C)C(=O)OCOC(=O)[C@@H]1N2C(=O)[C@@H](/N=C/N3CCCCCC3)[C@H]2SC1(C)C [Pivmecillinam hydrochloride]	35
CNc1ncnc2c1ncn2[C@@H]1O[C@H](CO)[C@@H](O)[C@H]1O [N6-methyladenosine]	66
OCC(O)CN1CCN(c2ccccc2)CC1 (racemic) [Dropropizine (R,S)]	55
C[C@@H](O)[C@H]1C(=O)N2C(C(=O)O)=C(SCCNC=N)C[C@H]12 [Imipenem]	8
c1ccc2c(c1)CCCC2C1=NCCN1 (stereo not given) [Tetrahydrozoline hydrochloride]	66
C1N2CN3CN1CN(C2)C3 [Methenamine]	75
O=C1NCCN1c1ncc([N+](=O)[O-])s1 [Niridazole]	54
CCCCCN(C)CCC(O)(P(=O)(O)O)P(=O)(O)O [Ibandronate sodium]	49
Nc1ccc(S(=O)(=O)NC(=O)c2ccccc2)cc1 [Sulfabenzamide]	52
C=C(CC)C(=O)c1ccc(OCC(=O)O)c(Cl)c1Cl [Ethacrynic acid]	68
CS(=O)(=O)c1ccc([C@@H](O)[C@@H](CF)NC(=O)C(Cl)Cl)cc1 [Florfenicol]	30

Compound	biofilm formation [%]
CCN(CC)CCCC(C)Nc1ccnc2cc(Cl)ccc12 (stereo not given) [Chloroquine diphosphate]	86
CN1CCC(=C2c3ccccc3C=Cc3ccccc32)CC1 [Cyproheptadine hydrochloride]	11
CC(C)(C)NC[C@@H](O)COc1cccc2c1CCCC2=O [(+) -Levobunolol hydrochloride]	68
CO[C@H]1/C=C/O[C@@]2(C)Oc3c(C)c(O)c4c(O)c(c(/C=N/N5CCN(C6CCCC6)CC5)c(O)c4c3C2=O)NC(=O)/C(C)=C\C=C\[C@H](C)[C@H](O)[C@@H](C)[C@@H](O)[C@@H](C)[C@H](OC(C)=O)[C@@H]1C [Rifapentine]	10
N=C(N)NC(=N)NCCc1ccccc1 [Phenformin hydrochloride]	87
C[C@H]1O[C@H](O[C@H]2[C@H](O)[C@@H](O)[C@@H](O[C@H]3[C@H](O)[C@@H](O)C(O)O[C@@H]3CO)O[C@@H]2CO)[C@H](O)[C@@H](O)[C@@H]1N[C@H]1C=C(CO)[C@@H](O)[C@H](O)[C@H]1O (stereo not given in full) [Acarbose]	66
NNCCc1ccccc1 [Phenelzine sulfate]	83
CC(=O)S[C@@H]1CC2=CC(=O)CC[C@]2(C)[C@H]2CC[C@@]3(C)[C@@H](CC[C@@]34CCC(=O)O4)[C@H]12 [Spironolactone]	59
CCCc1cc(C(N)=S)ccn1 [Prothionamide]	75
CC(Cc1cccc(C(F)(F)F)c1)NCCOC(=O)c1ccccc1 (stereo not given) [Benfluorex]	56
NS(=O)(=O)c1cc(C2(O)NC(=O)c3ccccc32)ccc1Cl (stereo not given) [Chlorthalidone]	63
C=CC(N)CCC(=O)O (stereo not given) [Vigabatrin hydrochloride]	96
CC(=O)OCC(=O)[C@@]1(O)CC[C@H]2[C@@H]3CCC4=CC(=O)CC[C@]4(C)[C@H]3[C@@H](O)C[C@@]21C [Cortisol acetate]	52
Cc1ncc(C[n+]2csc(CCO)c2C)c(N)n1 [Thiamine hydrochloride]	52
CC(C)c1c(C(=O)Nc2ccccc2)c(-c2ccccc2)c(-c2ccc(F)cc2)n1CC[C@@H](O)C[C@@H](O)CC(=O)O [Atorvastatin]	97
CCN[C@H]1CN(CCCOC)S(=O)(=O)c2sc(S(N)(=O)=O)cc21 [Brinzolamide]	47
CCCCN(CCCC)CCCOC(=O)c1ccc(N)cc1 [Butacaine]	85
COC(=O)Nc1nc2cc(C(=O)c3cccs3)ccc2[nH]1 [Nocodazole]	70
Cc1ccc(C(=O)c2ccc(CC(=O)O)n2C)cc1 [Tolmetin sodium salt dihydrate]	71
CC[N+](C)(CC)CCOC(=O)C1c2ccccc2Oc2ccccc21 [Methantheline bromide]	61
CC(=O)OCC(=O)[C@@]1(O)CC[C@H]2[C@@H]3CCC4=CC(=O)CC[C@]4(C)[C@@]3(F)[C@@H](O)C[C@@]21C [Fludrocortisone acetate]	71
Cc1cn[nH]c1 [Fomepizole]	71
NCCc1c[nH]cn1 [Histamine dihydrochloride]	85
OC(Cn1cncn1)(Cn1cncn1)c1ccc(F)cc1F [Fluconazole]	104
CCCOc1cc(N)ccc1C(=O)OCCN(CC)CC [Propoxycaine hydrochloride]	73

Compound	biofilm formation [%]
CC[N+](C)(C)c1cccc(O)c1 [Edrophonium chloride]	67
O=C1c2c(O)cccc2Cc2cccc(O)c21 [Anthralin]	87
COc1cc(C(=O)OCCCN2CCCN(CCCOC(=O)c3cc(OC)c(OC)c(OC)c3)CC2)cc(OC)c1OC [Dilazep dihydrochloride]	82
CN(C)CCCN1c2ccccc2Sc2ccc(C(F)(F)F)cc21 [Triflupromazine hydrochloride]	69
CC(=O)Oc1ccccc1C(=O)Nc1ncc([N+](=O)[O-])s1 [Nitazoxanide]	61
CCN(CC)CCOC(=O)C1(C2CCCCC2)CCCCC1 [Dicyclomine hydrochloride]	78
CC(N/C(=N\C#N)Nc1ccncc1)C(C)(C)C (stereo not given) [Pinacidil]	47
CCCCC(O)c1ccccc1 (stereo not given) [Fenipentol]	92
N=C(NCCCCCCNC(=N)NC(=N)Nc1ccc(Cl)cc1)NC(=N)Nc1ccc(Cl)cc1 [Chlorhexidine]	9
NCc1ccccc1CC(=O)N[C@@H]1C(=O)N2C(C(=O)O)=C(CSc3nnnn3CC(=O)O)CS[C@H]12 [Ceforanide]	2
CN1CCN(C2=Nc3ccccc3Oc3ccc(Cl)cc32)CC1 [Loxapine succinate]	69
C[N+]1(C)CCC(OC(=O)C(O)(c2ccccc2)C2CCCC2)C1 (stereo not given) [Glycopyrrolate]	71
Clc1ccc(CCC(Cn2ccnc2)Sc2c(Cl)cccc2Cl)cc1 (stereo not given) [Butoconazole nitrate]	60
N#Cc1ccc(C(c2ccc(C#N)cc2)n2cncn2)cc1 [Letrozole]	71
C[C@@H]1C[C@H]2[C@@H]3C[C@H](F)C4=CC(=O)C=C[C@]4(C)[C@@]3(F)[C@@H](O)C[C@]2(C)[C@@]1(O)C(=O)CO [Flumethasone]	75
O=C(O)Cc1ccc(-c2ccccc2)cc1 [Felbinac]	122
O=C(O)c1cn(-c2ccc(F)cc2)c2cc(N3CCNCC3)c(F)cc2c1=O [Sarafloxacin]	16
COc1cc2nc(N3CCN(C(=O)C4CCCO4)CC3)nc(N)c2cc1OC (stereo not given) [Terazosin hydrochloride]	74
Nc1ccc(S(=O)(=O)Nc2ccc(Cl)nn2)cc1 [Sulfachloropyridazine]	31
CN(C)CCCOc1nn(Cc2ccccc2)c2ccccc12 [Benzydamine hydrochloride]	56
C#C[C@]1(O)CC[C@H]2[C@@H]3[C@H](C)CC4=C(CCC(=O)C4)[C@H]3CC[C@@]21C [Tibolone]	63
CC(=O)OCC(=O)[C@@]1(O)CC[C@H]2[C@@H]3CCC4=CC(=O)C=C[C@]4(C)[C@@]3(F)[C@@H](O)C[C@@]21C [Isoflupredone acetate]	62
COc1cc(C(=O)N2CCOCC2)cc(OC)c1OC [Trimetozine]	59
CC(=O)Oc1cc(C(C)C)c(OCCN(C)C)cc1C [Moxisylyte hydrochoride]	75
CC(c1cc2ccccc2s1)N(O)C(N)=O (stereo not given) [Zileuton]	69

Fetched one by one from the entries so far:
Compound	biofilm formation [%]
CCN(CC)CCOC(=O)C1(C2CCCCC2)CCCCC1 [Dicyclomine hydrochloride]	78
CN1CCN(C2=Nc3ccccc3Oc3ccc(Cl)cc32)CC1 [Loxapine succinate]	69
CC(=O)Oc1ccccc1C(=O)Nc1ncc([N+](=O)[O-])s1 [Nitazoxanide]	61
O=C(O)Cc1ccc(-c2ccccc2)cc1 [Felbinac]	122
